{
  "sequences": {"note": "Sequences of proteins named here, by UniProt entry; tags and fusion partners are left off.", "UniProt P18054, whole entry, looked up": "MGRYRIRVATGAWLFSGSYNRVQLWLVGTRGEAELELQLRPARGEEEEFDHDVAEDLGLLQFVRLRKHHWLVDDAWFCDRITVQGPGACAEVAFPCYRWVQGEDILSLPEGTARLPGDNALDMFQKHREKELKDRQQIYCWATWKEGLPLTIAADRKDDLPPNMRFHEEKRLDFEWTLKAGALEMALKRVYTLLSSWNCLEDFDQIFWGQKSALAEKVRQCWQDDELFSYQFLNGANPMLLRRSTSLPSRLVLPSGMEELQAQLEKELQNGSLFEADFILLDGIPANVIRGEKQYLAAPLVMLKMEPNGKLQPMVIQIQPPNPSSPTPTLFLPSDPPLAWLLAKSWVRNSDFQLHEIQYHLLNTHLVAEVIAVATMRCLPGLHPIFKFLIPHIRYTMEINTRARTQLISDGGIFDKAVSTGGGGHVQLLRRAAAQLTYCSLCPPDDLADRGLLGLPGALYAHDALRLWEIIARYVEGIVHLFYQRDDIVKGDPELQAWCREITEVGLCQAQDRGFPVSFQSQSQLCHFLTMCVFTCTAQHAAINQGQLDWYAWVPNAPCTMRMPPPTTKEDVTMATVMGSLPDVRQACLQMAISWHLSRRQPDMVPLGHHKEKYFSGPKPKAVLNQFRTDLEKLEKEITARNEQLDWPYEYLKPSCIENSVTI"},
  "source": "PubChem BioAssay AID1671190",
  "about": "(National Center for Advancing Translational Sciences (NCATS), 2021)",
  "note": "Hit rate of the full screen: of about 580,000 compounds, about 6,100 (1.1%) were called active. Inconclusive results, whose numbers are uncertain, are shown with a selection of clear calls. Calls come from the whole dose curve; as a rule, active = well fitted inhibition curve with a large enough effect; inconclusive = small, poorly fitted or top-dose-only effect, or another doubt; inactive = no such curve, though single readings can be large or run the other way. Potencies of inconclusive entries are doubtful fits and often do not repeat. % is set by controls: 0 for no effect and ±100 for the full control effect; potency is the fitted concentration of half-maximal effect.",
  "data": [
    {"target": "Polyunsaturated fatty acid lipoxygenase ALOX12 (Homo sapiens) (UniProt P18054)", "assay": "Primary qHTS assay for inhibitors of human arachidonate 12S-lipoxygenase (ALOX12): Round 2", "conditions": "purified 12hLO, xylenol orange hydroperoxide absorbance; activity change, negative = inhibition: at 108 µM (top of the series) unless noted", "how_it_was_run": "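Purified human 12hLO (150 nM final) in 25 mM Hepes, 0.01% Triton X-100, pH 7.0 was preincubated 15 min at room temperature with compound. Then 40 uM arachidonic acid was added, 30 min. Hydroperoxide was read by Fe-XO absorbance ratio 573/405 nm.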", "values": [
      {"smiles": "COc1cccc(/C=N/NC(=O)CNC(=O)c2cccs2)c1O", "Potency": "inactive"},
      {"smiles": "CSC1=N/C(=C\\c2cccc(Cl)c2Cl)C(=O)S1", "Potency": "inconclusive: 0.398 µM [inhibitor, full curve, poor fit]"},
      {"smiles": "Brc1ccccc1-c1nc2cc3c(cc2[nH]1)OCCO3", "Potency": "inconclusive: 6.31 µM [inhibitor, full curve]"},
      {"smiles": "COc1ccc(-c2c(-c3cc(OC)cc(OC)c3)n(C)c3ccc(-c4cnc(N)nc4)cc23)cc1", "Potency": "inconclusive: 100 µM [inhibitor, single point]"},
      {"smiles": "C#CCN(C)Cc1ccccc1", "Potency": "inconclusive: 50.1 µM [inhibitor, partial curve, poor fit]"},
      {"smiles": "COCCn1cc(C(=O)NC2CCCc3c2[nH]c2ccccc32)c2ccccc2c1=O", "note": "(configuration not stated)", "Potency": "inconclusive: 50.1 µM [inhibitor, partial curve, poor fit]"},
      {"smiles": "N#Cc1ncn(Cc2coc(-c3ccccc3)n2)n1", "Potency": "inactive"},
      {"smiles": "Cn1c(=O)c2[nH]c(SCCN3CCCCC3)nc2n(C)c1=S", "Potency": "inconclusive: 63.1 µM [inhibitor, partial curve, poor fit]"},
      {"smiles": "COC(=O)c1sc(NC(=S)NNC(=O)c2c(Br)c(C)nn2C)c(C(=O)OC)c1C", "Potency": "inconclusive: 50.1 µM [inhibitor, partial curve, poor fit]"},
      {"smiles": "CC(C(=O)Nc1ccc(OC(F)F)c(Cl)c1)n1cccn1", "note": "(configuration not stated)", "Potency": "inconclusive: 112 µM [inhibitor, single point]"},
      {"smiles": "O=C(CN(c1ccc(Br)cc1)S(=O)(=O)c1ccc(Cl)c([N+](=O)[O-])c1)NCC1CCCO1", "note": "(configuration not stated)", "Potency": "inactive"},
      {"smiles": "CC1CN(C(=O)CSc2nc(N)c(NC(=O)c3ccc(C(F)(F)F)cc3)c(=O)[nH]2)CC(C)O1", "note": "(configuration not stated)", "activity change, negative = inhibition": "inconclusive: -38.1% [inhibitor]"},
      {"smiles": "COc1ccc(S(=O)(=O)n2oc(=O)cc2-c2ccccc2)cc1OC", "Potency": "active: 14.1 µM"},
      {"smiles": "O=C(CN=C1NS(=O)(=O)c2ccccc21)NCCc1ccccn1", "Potency": "inactive"},
      {"smiles": "CCCCCCn1c(=O)n2n(c1=O)[C@@H]1CN(S(=O)(=O)c3ccc(C)cc3)C[C@]1(O)[C@@H](OC(=O)NCc1ccccc1)C2", "Potency": "inconclusive: 141 µM [inhibitor, single point]"},
      {"smiles": "COc1ccc(/C=C/C(=O)c2ccc(C)cc2)cc1", "Potency": "inconclusive: 158 µM [inhibitor, partial curve, poor fit]"},
      {"smiles": "Cc1ccc(NC(=S)NC2CCSc3ccccc32)cc1C", "note": "(configuration not stated)", "Potency": "active: 44.7 µM"},
      {"smiles": "CC1(C)CC(=O)C(N=Nc2ccc(Br)cc2)=C(O)C1", "Potency": "inconclusive: 20 µM [inhibitor, partial curve, poor fit]"},
      {"smiles": "Cc1ccc(OC(C)c2nnc(N)s2)cc1Cl", "note": "(configuration not stated)", "Potency": "inactive"},
      {"smiles": "CCOC(=O)c1ccc(-n2c(CN3CCN(CC)CC3)nc3ccc([N+](=O)[O-])cc3c2=O)cc1", "Potency": "inconclusive: 39.8 µM [inhibitor, single point]"},
      {"smiles": "COC(=O)C1=C(C)N(Cc2ccc(Cl)cc2)C(=S)NC1c1ccc(Br)cc1", "note": "(configuration not stated)", "Potency": "active: 31.6 µM"},
      {"smiles": "COc1ccc(NC(=O)C2CCN(S(C)(=O)=O)CC2)cc1OC", "Potency": "inconclusive: 89.1 µM [inhibitor, single point]"},
      {"smiles": "Cn1c(SCC(=O)N2CCc3ccccc32)nnc1-c1ccc(F)cc1", "Potency": "inactive"},
      {"smiles": "CCOc1cc(CNCc2ccccn2)cc(Cl)c1OCc1ccc(F)cc1", "Potency": "inconclusive: 31.6 µM [inhibitor, partial curve, poor fit]"},
      {"smiles": "Cc1nc2c(OCc3ccc(C#N)cc3)cccn2c1N(C)C(=O)CCC1CCCC1", "Potency": "inconclusive: 50.1 µM [inhibitor, partial curve, poor fit]"},
      {"smiles": "COc1ccc([C@H]2C[C@@H](n3cc(COC(=O)c4ccccc4)nn3)[C@H](O)CN2Cc2cccs2)cc1", "Potency": "inconclusive: 79.4 µM [inhibitor, single point]"},
      {"smiles": "CCOC(=O)c1ccc(N2CCN(CC)CC2)c(NC(=O)COc2ccc(C(C)(C)C)cc2)c1", "Potency": "inconclusive: 44.7 µM [inhibitor, partial curve, poor fit]"},
      {"smiles": "CCOc1cc(CNc2ccc(N(C)C)cc2)cc(Br)c1OCC(=O)NC(C)(C)C", "Potency": "inactive"},
      {"smiles": "Cc1ccc(OCC(O)CNC2CCCC2)cc1C", "note": "(configuration not stated)", "Potency": "inconclusive: 112 µM [inhibitor, single point]"},
      {"smiles": "O=C1CC(C(=O)Nc2ccc(F)c(Cl)c2)N=C(N2CCCCC2)N1", "note": "(configuration not stated)", "Potency": "inconclusive: 50.1 µM [inhibitor, partial curve, poor fit]"},
      {"smiles": "CCc1ccc2nc(-c3ccc(C)o3)cc(C(=O)O)c2c1", "Potency": "inconclusive: 5.62 µM [inhibitor, full curve, poor fit]"},
      {"smiles": "Cc1c(Cl)cccc1NC(=O)c1ccc2c(c1)N(S(C)(=O)=O)CC2", "Potency": "inconclusive: 89.1 µM [inhibitor, single point]"},
      {"smiles": "COc1ccc(S(=O)(=O)NNc2nc(C)cc(C)n2)cc1Br", "Potency": "active: 31.6 µM"},
      {"smiles": "CCNC(=S)N(CCc1c(C)[nH]c2ccc(C)cc12)Cc1cccnc1", "Potency": "inactive"},
      {"smiles": "CCOc1ccc2nc(N3CCN(C(=O)CS(=O)(=O)c4ccc(F)cc4)CC3)sc2c1", "Potency": "inconclusive: 112 µM [inhibitor, partial curve, poor fit]"},
      {"smiles": "Cc1ccc2c(Cl)cc(Cl)c(OCC(=O)NCC(F)(F)F)c2n1", "Potency": "inconclusive: 7.94 µM [inhibitor, full curve, poor fit]"},
      {"smiles": "O=C1NC(C(=O)Nc2ccccc2)Cn2cccc21", "note": "(configuration not stated)", "Potency": "inactive"},
      {"smiles": "CCCCCCN1CCN(C2CN(Cc3cn(Cc4ccc(Cl)cc4)nn3)S(=O)(=O)C2)CC1", "note": "(configuration not stated)", "Potency": "inconclusive: 44.7 µM [inhibitor, single point]"},
      {"smiles": "CCCNC(=O)N[C@@H]1C[C@H](Cn2cc(CN(C)C)nn2)[C@@H](O)[C@H]1O", "Potency": "inconclusive: 56.2 µM [inhibitor, single point]"},
      {"smiles": "CC(=O)N1CCN(C(=O)c2cc(-c3ccc(Cl)s3)nc3ccccc23)CC1", "Potency": "inconclusive: 70.8 µM [inhibitor, single point]"},
      {"smiles": "CCCCN(C=O)c1c(CC)nc2c(OCC(=O)c3ccc(F)cc3)cccn12", "Potency": "inconclusive: 50.1 µM [inhibitor, partial curve, poor fit]"},
      {"smiles": "Cc1ccc(N2C(=O)C3C4C=CC(CNC(=S)Nc5ccc(Cl)cc5)(O4)C3C2=O)cc1", "note": "(configuration not stated)", "Potency": "inconclusive: 39.8 µM [inhibitor, partial curve]"},
      {"smiles": "Cc1ccc(Cl)c2sc(N3CCN(C(=O)C4CC4)CC3)nc12", "Potency": "inconclusive: 89.1 µM [inhibitor, partial curve, poor fit]"},
      {"smiles": "Cc1cccc(N2CCN(C(=O)Cn3cccc3)CC2)c1C", "Potency": "inactive"},
      {"smiles": "CC1=C/C(=C\\c2ccc3c(c2)OCO3)C(=O)S1", "Potency": "inconclusive: 35.5 µM [inhibitor, partial curve, poor fit]"},
      {"smiles": "NS(=O)(=O)c1cc(C(=O)OCC(=O)Nc2ccc3[nH]c(=O)[nH]c3c2)ccc1Cl", "Potency": "inactive"},
      {"smiles": "CCCCC(CC)C(=O)Nc1ccc2ccccc2c1", "note": "(configuration not stated)", "Potency": "inactive"},
      {"smiles": "CCOc1cc(NC(=S)NCC2CCCO2)c(OCC)cc1NC(=O)c1ccccc1F", "note": "(configuration not stated)", "Potency": "active: 39.8 µM"},
      {"smiles": "Cc1ccccc1CNC(=O)c1c(C)oc2c1C1=NCCN1C=N2", "Potency": "inactive"},
      {"smiles": "CN1CCC2(CC1)N=C(c1ccc(F)cc1)C(=S)N2C(=O)c1ccccc1", "Potency": "inconclusive: 50.1 µM [inhibitor, partial curve, poor fit]"},
      {"smiles": "CCOc1ccc2cc(C3CC(c4ccco4)=NN3S(=O)(=O)c3ccccc3)c(Cl)nc2c1", "note": "(configuration not stated)", "Potency": "inactive"},
      {"smiles": "O=c1c(O)c(-c2cccs2)oc2ccc(Cl)cc12", "Potency": "inconclusive: 0.631 µM [inhibitor, full curve, poor fit]"},
      {"smiles": "C=CCN1C(=O)C2(NNc3ccccc3O2)c2ccccc21", "note": "(configuration not stated)", "Potency": "inconclusive: 50.1 µM [inhibitor, partial curve, poor fit]"},
      {"smiles": "COC(=O)C1=CN(C(C)C)C=C(C(=O)OC)C1c1ccsc1", "Potency": "inconclusive: 8.91 µM [inhibitor, full curve, poor fit]"},
      {"smiles": "Cc1ccccc1Cn1cc(S(=O)(=O)c2ccc(Cl)cc2)c(=O)c2cc3c(cc21)OCO3", "Potency": "inconclusive: 100 µM [inhibitor, partial curve, poor fit]"},
      {"smiles": "COc1cccc(NC(=O)COC(=O)c2c3c(nc4ccccc24)CCC(C)C3)c1", "note": "(configuration not stated)", "Potency": "inactive"},
      {"smiles": "O=C(Nc1ccncc1)c1cc2ccccc2cc1O", "Potency": "inactive"},
      {"smiles": "O=C(COc1ccc(F)cc1)N1CCC(n2cc(-c3nc(C4CC4)no3)nn2)C1", "note": "(configuration not stated)", "Potency": "inconclusive: 44.7 µM [inhibitor, partial curve]"},
      {"smiles": "Cc1ccc(-c2nc(NCc3ccco3)n(C(=O)c3ccco3)n2)cc1", "Potency": "inactive"},
      {"smiles": "CCc1ccc(-n2nc3cc(C)c(NC(=O)c4cc(Cl)ccc4OC)cc3n2)cc1", "Potency": "inconclusive: 44.7 µM [inhibitor, partial curve, poor fit]"},
      {"smiles": "CCOC(=O)/C(=N/Nc1ccccc1OC)N1CCCc2ccccc21", "Potency": "inconclusive: 126 µM [inhibitor, single point]"},
      {"smiles": "O=C(c1ccccc1Cl)N1CCN(c2nc3ncccc3o2)CC1", "Potency": "inactive"},
      {"smiles": "Cc1ccc(NC(=O)c2ccc(NC(=O)N3CCSc4ncccc43)cc2)cc1Cl", "Potency": "inconclusive: 44.7 µM [inhibitor, partial curve, poor fit]"},
      {"smiles": "O=C(c1cccs1)N1C[C@H](O)[C@@H](n2cc(C3CC3)nn2)C[C@@H]1c1ccccc1", "Potency": "inconclusive: 141 µM [inhibitor, single point]"},
      {"smiles": "CC[C@@H](Nc1ncnc2c1CN(C1CCCNCC1)C(=O)CN2C)c1ccccc1", "note": "(some centres not stated)", "Potency": "inconclusive: 4.47 µM [inhibitor, full curve]"},
      {"smiles": "CN(C)c1ccc(C(=O)NCCCCCCC(=O)NO)cc1", "Potency": "inconclusive: 0.273 µM [inhibitor, full curve, poor fit]"},
      {"smiles": "O=C(Cn1cc(S(=O)(=O)Cc2ccc(F)cc2)c2ccccc21)NCCc1ccccc1", "Potency": "inconclusive: 79.4 µM [inhibitor, partial curve, poor fit]"}
    ]}
  ]
}
